Results: PubChem BioAssay AID743402 (Broad Institute, 2014)
In all, about 1,200 compounds went through this assay and about 140 (12%) were called active.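 The calls were made as follows: active = fitted curve falls past -35% activity change at a dose under twice the top valid dose, in every replicate test; inconclusive = replicate tests disagree on the call; inactive = the rest, including activity in the opposite direction.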 Most of the strongest results are missing from this list.

Assay: restoration of mutant CFTR halide transport – FRT cells, YFP quenching, cherry-pick, dose response (AID 743402);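 also: compounds act as correctors raising surface CFTR-F508del before acute activation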
Conditions: FRT CFTR-F508del YFP iodide quenching, 24 h, channel opened with forskolin and a potentiator; at 26 µM (top of the series) unless noted

Activity change, negative = more quenching (active), inactive:
C[C@@H]1CN([C@@H](C)CO)C(=O)Cc2cc(NC(=O)Nc3ccc(C(F)(F)F)cc3)ccc2O[C@H]1CN(C)C(=O)Nc1ccccc1 7.14%
CCn1c(SCC(=O)N/N=C/c2ccc(O)c(OC)c2)nc2ccccc21 11.2%
CCOC(=O)c1sc(Nc2nc(C)cc(C)n2)nc1C -11.1%
COC(=O)C1=CN(c2ccc3c(c2)OCO3)C(N)=C(C#N)C1c1cccc(F)c1 (stereo not given) -3.12%
Cc1ccc(C(=O)NC(=S)NNC(=O)c2ccccc2O)cc1 -6.46%
CCSc1nnc(N2C(=O)C(O)=C(C(=O)c3ccco3)C2c2cccc(OC)c2)s1 (stereo not given) -9.58%
Cc1ccc2cc(CN(CC3CCCO3)C(=S)Nc3ccccc3)c(=O)[nH]c2c1C (stereo not given) 0%
COc1ccc(C)cc1Nc1c2c(nc3ccccc13)CCC2 29.2%
C[C@H]1CN([C@@H](C)CO)S(=O)(=O)c2ccc(-c3ccc(C#N)cc3)cc2O[C@@H]1CN(C)Cc1ccccn1 -1.72%
COc1cccc(C(=O)c2c[nH]c(C(=O)NCCCN3CCOCC3)c2)c1 12.9%
Cc1ccc(S(=O)(=O)N(Cc2cc3ccccc3[nH]c2=O)c2cccc(C)c2)cc1 12.9%
C[C@H](CO)N1C[C@H](C)[C@H](CN(C)C(=O)NC2CCCCC2)Oc2ncc(-c3cc4ccccc4o3)cc2C1=O 6.46%
COc1ccc(NC(=O)c2cc(S(=O)(=O)N3CCOCC3)ccc2C)cc1S(=O)(=O)N1CCOCC1 -6.25%
COc1cccc(-c2cc3nc(-c4ccccc4)cc(=O)n3[nH]2)c1 -20%
COc1ccc(C(=O)c2cc(OC)c(OC)c(OC)c2)cc1OC -20.9%
Cc1ccc(S(=O)(=O)Nc2ccc3c(c2)C(=O)N([C@@H](C)CO)C[C@H](C)[C@H](CN(C)S(=O)(=O)c2ccc(Cl)cc2)OCCCC[C@@H](C)O3)cc1 1.72%
CC(OC(=O)c1ccc(Cl)nc1)C(=O)NC(C)(C)C (stereo not given) 3.12%
O=C1NCCc2c1[nH]c1ccc([N+](=O)[O-])cc21 0%
CCCNC(=O)N1[C@H](CO)[C@@H](c2ccc(C3=CCCC3)cc2)[C@@H]1CN(C)C(C)=O 3.12%
Cc1sc(NC(=S)NC(=O)CCc2ccccc2)c(C(N)=O)c1C -6.46%
CCCCN1C(=O)CC(C(=O)OCC)=C1C -6.97%
C[C@H]1CCCCO[C@@H](CN(C)C(=O)Nc2ccc(C(F)(F)F)cc2)[C@@H](C)CN([C@@H](C)CO)C(=O)c2cc(NC(=O)Nc3ccc(F)cc3)ccc2O1 6.7%
O=Nc1ccc(O)c2ncccc12 -6.25%
Cc1ccc(-c2csc3ncn(CC#N)c(=O)c23)cc1C 0%
C=CCN1c2ccccc2[C@]23C[C@@H](C(=O)OC)N(C(=O)c4cccs4)C2=NC(C(=O)OC)=C(C(=O)OC)[C@H]13 6.67%
COc1cc2c(c(Br)c1N)-c1cc(Br)c(N)cc1C2=O -13.3%
COc1ccc(CC(=O)NCc2ccc(-n3cccc3)cc2)cc1OC 0%
COc1ccc(-c2ccc3c(c2)[C@H]2[C@H](CCN2S(=O)(=O)c2ccc(OC)cc2)[C@H](CO)N3C)cc1 -31.2% [at 8 µM]
COC(=O)c1ccc(C(=O)NC2CCCc3c2cnn3-c2cc(F)cc(F)c2)nc1 (stereo not given) 6.67%
Cc1cc(C(=O)CCC(=O)NC(C)c2ccc(S(N)(=O)=O)cc2)c(C)s1 (stereo not given) 0%
COc1cccc(-c2cccc(-c3nc(C(=O)NCC(F)(F)F)cc4c3[C@H](CCO)N([S@@](=O)C(C)(C)C)C4)c2)c1 13.8%
Cc1ccc(NC(=O)COC(=O)CCC2CCCC2)c(Br)c1 3.33%
CN1CCN(C(=O)c2ccc(CN(c3ccccc3)S(=O)(=O)c3ccccc3)cc2)CC1 13.3%
CN[C@H]1CCc2cc(OC)c(OC)c(OC)c2-c2ccc(N(C)CC(OC)OC)c(=O)cc21 -1.61%
Cc1cccc(C(=O)N(Cc2ccco2)c2c(N)n(Cc3ccccc3)c(=O)[nH]c2=O)c1 4.84%
CC1=Nc2cc(C(=O)NCC3CCCO3)ccc2Sc2ccc(Br)cc21 (stereo not given) 19.4%
COc1cccc(-c2nnc(SCC(=O)NC3CCS(=O)(=O)C3)n2C)c1 (stereo not given) 10.7%
CCN(CC(=O)Nc1cc(Cl)ccc1-n1cncn1)Cc1nc2ccccc2c(=O)[nH]1 6.67%
Cc1ccc2c(c1)CCCN2C(=O)CCc1nc2ccccc2c(=O)[nH]1 -6.67%
Cc1ccc(OCCC(=O)NNC(=O)c2ccc(Br)cc2)cc1 3.33%
CC(=O)N1Cc2cc(C(=O)NCC(F)(F)F)nc(-c3cccc(-c4cccnc4)c3)c2[C@@H]1CCO -6.46%
COc1ccc(OC)c(/C(C)=N\NC(=O)c2cc3cc(Cl)ccc3n2C)c1 0%
C[C@H](CO)N1C[C@H](C)[C@@H](CN(C)C(=O)Nc2ccc(C(F)(F)F)cc2)OCCCC[C@H](C)Oc2ccc(NC(=O)Nc3ccc(F)cc3)cc2C1=O 25.8%
COc1cc(NC(=O)c2csc(N)n2)cc(C(=O)Nc2cccc(C(F)(F)F)c2)c1 12.5%
CCCn1c(CN2CCN(C(=O)OCC)CC2)nc2cc(NC(=O)CC)ccc21 -3.12%
COc1ccc(-c2cc(=O)c3c(O)cc(O)cc3o2)cc1 5.42%
CCN(CC)S(=O)(=O)c1ccc(NC(=O)C2CC(=O)N(c3ccc4c(c3)OCCO4)C2)cc1 (stereo not given) 0%
C=CCN(CC=C)C(=S)Nc1ccc(OC)c(OC)c1 6.46%
O=C(c1cccnc1)N1CC[C@@H]2[C@H](CO)Nc3ccc(C4=CCCCC4)cc3[C@@H]21 -8.74%
COc1ccc(NC(=O)CSc2nnc(Cc3cccs3)n2C)cc1 8.17%
Cc1cc(N2CCCC2)c(F)cc1/C=C\[N+](=O)[O-] -17.9%
COc1ccc(C(C)=O)cc1CS(=O)(=O)CC(=O)NCCc1c[nH]c2ccccc12 20%
COc1ccc(C#Cc2ccc3c(c2)O[C@@H](CN(C)C(=O)Nc2cccc(OC)c2)[C@H](C)CN([C@H](C)CO)S3(=O)=O)cc1 7.14%
O=C(NCC(c1cccs1)N1CCOCC1)c1ccc(OCc2ccccc2)cc1 (stereo not given) 6.7%
COc1cc(OC)c2c(-c3cccc(-c4ccc(OC)c(OC)c4)c3)cc(=O)oc2c1 -3.33%
COc1cc(C(=O)OCCc2cc3ccccc3c(=O)o2)cc(OC)c1OC 9.68%
CCN(CC(=O)Nc1ccc(NC(C)=O)cc1)C(=O)c1ccc(N2CCC(C)CC2)c([N+](=O)[O-])c1 12.9%
Cc1cc(C(=O)CN2C(=O)C(=O)N(Cc3ccccc3)C2=O)c(C)n1Cc1ccccc1 3.33%
Cc1ccc(S(=O)(=O)NCCCNS(=O)(=O)c2ccc(C)cc2)cc1 3.33%
COC(CNC(=O)[C@H](Cc1ccccc1)N1Cc2ccccc2C1=O)OC -3.33%
COc1ccc(N(C)S(=O)(=O)c2cccc(C(=O)NCC3CCCCC3)c2)cc1 12.9%
O=C(N/N=C/c1cc2c3c(c1O)CCCN3CCC2)c1ccccc1O 6.25%
O=C1C=CN(C2OC(CO)C(O)C2O)C(=O)C1 (stereo not given) 13.3%
Cc1ccc(S(=O)(=O)N2CCN(C(=O)COC(=O)/C=C/c3ccc(Cl)cc3)CC2)c(C)c1 14.8%
CCCCNC(=O)CSc1nc2ccc(C)cc2[nH]1 16.2%
C[C@@H]1CN([C@H](C)CO)S(=O)(=O)c2ccc(-c3ccc(C#N)cc3)cc2O[C@H]1CN(C)Cc1cccc(F)c1 0%
Cc1ccc(/C=N/NC(=O)c2c(-c3ccccc3)noc2C)c(O)c1 12.9%
CCCc1nc(SC2CCCC2)c2c(=O)n(C)c(=O)n(C)c2n1 3.33%
Cn1cc(C(=O)OCC2CCN(CCNS(C)(=O)=O)CC2)c2ccccc21 12.5%
COc1cc(OC)cc(C(=O)c2c(C)c(C#N)c3ccccn23)c1 -14.3%
COc1ccccc1NC(=S)N(Cc1ccco1)Cc1cc2cc(C)cc(C)c2[nH]c1=O -13.3%
O=C(O)c1ccccc1-c1nc(-c2ccccc2)c(-c2ccccc2)[nH]1 3.12%
COc1ccc(Nc2nc3cc(-c4sccc4C)sc3c(=O)n2C)cc1OC -35.7%
CCCCC1(C2CCCC2)NC(=O)NC1=O (stereo not given) 13.3%
CCOC(=O)c1c(C)[nH]c(C)c1C(=O)COC(=O)c1ccc([N+](=O)[O-])s1 13.1%
c1ccc(CCN(Cc2ccccc2)Cc2nc(C3CC3)no2)cc1 0%
CCOc1ccc(C(=O)NCC(=O)NNC(=O)c2cc(C)oc2C)cc1OCC 10.7%
COc1ccc(S(=O)(=O)Nc2ccc3c(c2)C(=O)N([C@@H](C)CO)C[C@H](C)[C@H](CN(C)Cc2ccc(Cl)c(Cl)c2)OCCCC[C@@H](C)O3)cc1 -3.57%
CCCC(=O)Nc1ccc2c(c1)C(=O)N(C)C[C@@H](OC)[C@H](C)CN(C(=O)CN1CCOCC1)[C@H](C)CO2 17.9%
Cc1ccc(-n2nnnc2SCC(=O)NC(C(=O)O)(c2ccccc2)c2ccccc2)cc1C 3.33%

5 records drawn at random from those above, as already listed:
Activity change, negative = more quenching (active), inactive:
COc1cccc(-c2nnc(SCC(=O)NC3CCS(=O)(=O)C3)n2C)c1 (stereo not given) 10.7%
COc1cc(C(=O)OCCc2cc3ccccc3c(=O)o2)cc(OC)c1OC 9.68%
O=Nc1ccc(O)c2ncccc12 -6.25%
CCCCC1(C2CCCC2)NC(=O)NC1=O (stereo not given) 13.3%
COc1ccc(N(C)S(=O)(=O)c2cccc(C(=O)NCC3CCCCC3)c2)cc1 12.9%
